The values below are quoted from earlier work in patent US20220183999A1, “Cannabidiol Pharmaceutical Compositions” (Sorrento Therapeutics, Inc., priority 2019, published 2022).

Values after ≈ are worked out from the molar mass of the structure shown.

For `C=C(C)[C@@H]1CCC(C)=C[C@H]1c1c(O)cc(CCCCC)cc1O` [CBD, Cannabidiol], the solubility in water is 13 µg/mL (≈ 41.3 µM).
